Test results published in patent US10052301B2, “Derivatives of propane diyl dicinnamate” (ORX PHARMACEUTICAL CORPORATION, priority 2009, dated 2018).

Key:
Type in all cases: cell-based
[1] = test system: A549 (human lung carcinoma cells); assay: MTT cell proliferation and viability assay, A549; settings: IC50(GM9503)/IC50(A549)
Description: (§1) Normal human fibroblast cell lines (GM9503 and GM8399) and human carcinoma cell lines MCF-7, A549, HCT116, SKOV-3 and PC-3 were maintained in DMEM (Dulbeco's Modified Essential Medium) supplemented with 10% FBS (Fetal Bovine Serum). In addition, murine leukemia MDAY-D2 cells were maintained in RPMI 1640 media supplemented with 5% FBS. All media were supplemented with 100 […] (all from Hyclone, Logan, Utah). Cells were incubated in a humidified air atmosphere containing 5% CO2 at 37° C.
(§2) Cell growth and viability were measured using the 3-(4,5-dimethythiazol-2-yl)-2,5-diphenyl tetrazolium bromide (MTT) reduction assay. MTT reagent (Sigma, St. Louis, Mo.) was prepared at 5 mg/ml in ddH2O (5× solution), filter sterilized and stored in the dark at −20° C.
(§3) To determine the optimal number of cells to seed per well, preliminary experiments were conducted examining increasing cell densities in 96 well plates. Cell were seeded at various densities and examined under the microscope after 96 h. Based on these experiments and growth curve analyses, optimal cell densities were selected for each cell line. […] Three hours after the addition of MTT, the amount of formazan formed was measured spectrophotometrically at 570 nm with a Spectramax Plus 384 plate reader.
(§4) To assess the effects of the novel compounds on growth and viability, GM9503 (normal human fibroblast cells; 2.08×10^3 cells/well), GM8399 (normal human fibroblast cells; 2.04×10^3 cells/well), A549 (human lung carcinoma cells; 2.05×10^3 cells/well), HCT116 (human colon carcinoma cells; 2.19×10^3 cells/well), MCF-7 (human breast carcinoma cells; 2.19×10^3 cells/well), SKOV-3 (human ovarian carcinoma cells; 2.10×10^3 cells/well), PC-3 (human prostate carcinoma cells; 2.08×10^3 cells/well) and MDAY-D2 (murine leukemia cells; 2.5×10^3 cells/well) were seeded in 96 well plates in supplemented medium. […] After incubation for 72 h, cell growth and viability were measured. […]

[2] = test system: PC-3 (human prostate carcinoma cells); assay: MTT cell proliferation and viability assay, PC-3; settings: IC50(GM9503)/IC50(PC-3)
Description: as §1, §2, §3, §4

[3] = test system: HCT116 (human colon carcinoma cells); assay: MTT cell proliferation and viability assay, HCT116; settings: IC50(GM9503)/IC50(HCT116)
Description: as §1, §2, §3, §4

[4] = test system: SKOV-3 (human ovarian carcinoma cells); assay: MTT cell proliferation and viability assay, SKOV-3; settings: IC50(GM9503)/IC50(SKOV-3)
Description: as §1, §2, §3, §4

[5] = test system: MCF-7 (human breast carcinoma cells); assay: MTT cell proliferation and viability assay, MCF-7; settings: IC50(GM9503)/IC50(MCF-7)
Description: as §1, §2, §3, §4

| SMILES | therapeutic (safety) index A549 (Lung) [1] | therapeutic (safety) index PC-3 (Prostate) [2] | therapeutic (safety) index HCT116 (Colon) [3] | therapeutic (safety) index SKOV-3 (Ovarian) [4] | therapeutic (safety) index MCF-7 (Breast) [5] |
| --- | --- | --- | --- | --- | --- |
| O=C(/C=C/c1ccc(O)c(O)c1)OCC(O)COC(=O)/C=C/c1ccc(O)c(O)c1 [Compound (IIb), (2E,2′E)-2-hydroxypropane-1,3-diyl bis(3-(3,4-dihroxyphenyl) acrylate] | 3.38 | 10.52 | 2.63 | 4.51 | 0.95 |
| COc1ccc(/C=C/C(=O)OCC(O)COC(=O)/C=C/c2ccccc2)cc1OC (stereo not drawn) [Compound (Id), (E)-3-(cinnamoyloxy)-2-hydroxypropyl 3-(3,4-dimethoxyphenyl) acrylate] | 3.31 | 6.64 | 5.25 | 2.74 | 0.70 |
| O=C(/C=C/c1ccccc1)OCC(O)COC(=O)/C=C/c1ccc(O)c(O)c1 (stereo not drawn) [Compound (Ie), (E)-3-(cinnamoyloxy)-2-hydroxypropyl 3-(3,4-dihydroxypheyl)acrylate] | 1.12 | 4.14 | 1.34 | 2.26 | 1.13 |
